Results from doi:10.1101/2021.09.29.462476.
Results are given in words; binding and its absence hold for the method and conditions named. Binding seen in cells or lysates may run through a third protein. A yes stands for co-enrichment or nearness to the bait. Other partners may have been found.

Sequences of proteins named here, by UniProt entry; tags and fusion partners are left off.
UniProt Q5T5D7: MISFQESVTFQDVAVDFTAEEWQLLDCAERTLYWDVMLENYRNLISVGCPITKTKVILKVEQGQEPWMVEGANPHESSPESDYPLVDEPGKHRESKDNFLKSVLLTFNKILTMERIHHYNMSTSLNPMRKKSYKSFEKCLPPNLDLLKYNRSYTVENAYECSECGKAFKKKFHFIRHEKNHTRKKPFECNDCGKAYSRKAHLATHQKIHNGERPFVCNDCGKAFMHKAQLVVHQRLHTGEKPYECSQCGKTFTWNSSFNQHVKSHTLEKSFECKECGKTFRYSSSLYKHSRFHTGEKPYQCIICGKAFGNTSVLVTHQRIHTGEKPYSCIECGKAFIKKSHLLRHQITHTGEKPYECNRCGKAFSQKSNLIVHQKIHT

Biological target: GFP-Znf684 (human) (UniProt Q5T5D7)
Experiment: affinity purification with mass spectrometry

B1: Pabpn1 (protein, UniProt Q86U42 1-306)
chain: MAAAAAAAAAAGAAGGRGSGPGRRRHLVPGAGGEAGEGAPGGAGDYGNGLESEELEPEELLLEPEPEPEPEEEPPRPRAPPGAPGPGPGSGAPGSQEEEEEPGLVEGDPGDGAIEDPELEAIKARVREMEEEAEKLKELQNEVEKQMNMSPPPGNAGPVIMSIEEKMEADARSIYVGNVDYGATAEELEAHFHGCGSVNRVTILCDKFSGHPKGFAYIEFSDKESVRTSLALDESLFRGRQIKVIPKRTNRPGISTTDRGFPRARYRARTTNYNSSRSRFYSGFNSRPRGRVYRGRARATSWYSPY
For B1, the binding was “binds”.
